These are yes or no findings as the source states them, for the method shown. For part of these data: In cells and extracts the contact can be indirect. Some entries that bind do so weakly or less than the wild type. For part of these data: Where a sequence is shown, tags or fusion partners need not be part of it.
B1: SHP (yeast two-hybrid screening) (protein, UniProt Q15466 1-257)
chain: MSTSQPGACPCQGAASRPAILYALLSSSLKAVPRPRSRCLCRQHRPVQLCAPHRTCREALDVLAKTVAFLRNLPSFWQLPPQDQRRLLQGCWGPLFLLGLAQDAVTFEVAEAPVPSILKKILLEEPSSSGGSGQLPDRPQPSLAAVQWLQCCLESFWSLELSPKEYACLKGTILFNPDVPGLQAASHIGHLQQEAHWVLCEVLEPWCPAAQGRLTRVLLTASTLKSIPTSLLGDLFFRPIIGDVDIAGLLGDMLLLR
B2: HA-tagged SHP (small heterodimer partner) (protein, UniProt Q15466 1-257)
chain: MSTSQPGACPCQGAASRPAILYALLSSSLKAVPRPRSRCLCRQHRPVQLCAPHRTCREALDVLAKTVAFLRNLPSFWQLPPQDQRRLLQGCWGPLFLLGLAQDAVTFEVAEAPVPSILKKILLEEPSSSGGSGQLPDRPQPSLAAVQWLQCCLESFWSLELSPKEYACLKGTILFNPDVPGLQAASHIGHLQQEAHWVLCEVLEPWCPAAQGRLTRVLLTASTLKSIPTSLLGDLFFRPIIGDVDIAGLLGDMLLLR
B3: HA-tagged HNF4 (hepatocyte nuclear factor 4) (protein, UniProt P41235 1-474)
chain: MRLSKTLVDMDMADYSAALDPAYTTLEFENVQVLTMGNDTSPSEGTNLNAPNSLGVSALCAICGDRATGKHYGASSCDGCKGFFRRSVRKNHMYSCRFSRQCVVDKDKRNQCRYCRLKKCFRAGMKKEAVQNERDRISTRRSSYEDSSLPSINALLQAEVLSRQITSPVSGINGDIRAKKIASIADVCESMKEQLLVLVEWAKYIPAFCELPLDDQVALLRAHAGEHLLLGATKRSMVFKDVLLLGNDYIVPRHCPELAEMSRVSIRILDELVLPFQELQIDDNEYAYLKAIIFFDPDAKGLSDPGKIKRLRSQVQVSLEDYINDRQYDSRGRFGELLLLLPTLQSITWQMIEQIQFIKLFGMAKIDNLLQEMLLGGSPSDAPHAHHPLHPHLMQEHMGTNVIVANTMPTHLSNGQMCEWPRPRGQAATPETPQPSPPGGSGSEPYKLLPGAVATIVKPLSAIPQPTITKQEVI

Sequences of proteins named here, by UniProt entry; tags and fusion partners are left off.
UniProt O00571: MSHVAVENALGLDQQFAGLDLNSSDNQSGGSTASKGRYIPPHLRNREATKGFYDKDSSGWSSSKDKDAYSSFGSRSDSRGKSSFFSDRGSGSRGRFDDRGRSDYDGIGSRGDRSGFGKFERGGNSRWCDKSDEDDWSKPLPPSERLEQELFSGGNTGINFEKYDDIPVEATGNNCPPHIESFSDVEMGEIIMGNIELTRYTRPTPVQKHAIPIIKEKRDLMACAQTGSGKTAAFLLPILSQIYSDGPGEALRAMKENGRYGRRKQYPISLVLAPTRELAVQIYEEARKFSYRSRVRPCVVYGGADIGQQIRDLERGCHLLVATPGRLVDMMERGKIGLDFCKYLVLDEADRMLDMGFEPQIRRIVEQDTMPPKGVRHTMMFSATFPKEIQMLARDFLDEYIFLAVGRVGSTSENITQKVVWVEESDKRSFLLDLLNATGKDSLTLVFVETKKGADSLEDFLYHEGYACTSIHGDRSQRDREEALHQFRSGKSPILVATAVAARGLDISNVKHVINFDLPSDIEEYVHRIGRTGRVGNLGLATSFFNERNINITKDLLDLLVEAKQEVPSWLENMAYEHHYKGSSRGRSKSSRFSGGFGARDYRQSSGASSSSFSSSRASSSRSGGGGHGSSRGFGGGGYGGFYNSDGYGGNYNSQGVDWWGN

Experiments:
[1] = molecular target: DDX3 (yeast two-hybrid screening) (UniProt O00571); test: two-hybrid; yeast two-hybrid screening with DDX3, unpublished data
Flag-tagged HNF4 = molecular target: T1, Flag-tagged HNF4 (UniProt P41235); test: co-IP; total cell lysates (2 mg) of HuH7 cells co-expressing Flag-HNF4 and HA-SHP, or Flag-SHP and HA-HNF4, on anti-Flag M2 agarose; start of the competition assay
T1 sequence: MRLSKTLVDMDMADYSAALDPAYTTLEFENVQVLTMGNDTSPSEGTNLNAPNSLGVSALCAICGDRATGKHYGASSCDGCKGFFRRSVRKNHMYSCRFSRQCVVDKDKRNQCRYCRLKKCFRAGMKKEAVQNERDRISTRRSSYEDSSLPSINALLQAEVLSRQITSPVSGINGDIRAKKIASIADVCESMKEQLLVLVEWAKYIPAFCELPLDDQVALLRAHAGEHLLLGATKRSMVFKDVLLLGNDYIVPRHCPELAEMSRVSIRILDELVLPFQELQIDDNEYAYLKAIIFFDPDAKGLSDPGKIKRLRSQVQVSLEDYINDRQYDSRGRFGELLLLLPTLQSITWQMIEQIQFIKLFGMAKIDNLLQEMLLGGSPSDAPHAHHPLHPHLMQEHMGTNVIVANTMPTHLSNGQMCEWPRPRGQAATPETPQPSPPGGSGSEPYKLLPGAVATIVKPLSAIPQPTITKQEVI

[2] = molecular target: GST-tagged full length DDX3 (UniProt O00571); test: pull-down; GST or GST-DDX3 (3 ug) prebound to glutathione Sepharose, incubated with nuclear extracts (200 ug) of HuH7 or HepG2 cells expressing HA-SHP or HA-HNF4, with or without 100 ug/ml RNase A, 4 C, 5 hr; washed with PBS, 0.5% NP40; anti-HA blot; only the target purified
Flag-tagged SHP = molecular target: T2, Flag-tagged SHP (UniProt Q15466); test: co-IP; total cell lysates (2 mg) of HuH7 cells co-expressing Flag-HNF4 and HA-SHP, or Flag-SHP and HA-HNF4, on anti-Flag M2 agarose; start of the competition assay
T2 sequence: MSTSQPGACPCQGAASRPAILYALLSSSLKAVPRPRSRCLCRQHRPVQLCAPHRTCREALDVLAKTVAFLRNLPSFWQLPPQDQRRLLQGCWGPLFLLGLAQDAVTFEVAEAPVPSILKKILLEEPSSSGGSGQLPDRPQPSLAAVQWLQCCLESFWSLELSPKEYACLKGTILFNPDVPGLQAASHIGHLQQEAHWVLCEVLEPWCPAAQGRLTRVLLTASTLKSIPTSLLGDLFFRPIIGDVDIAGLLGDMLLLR

Flag-tagged DDX3 = Flag-tagged DDX3 (UniProt O00571); test: co-IP; RNase A-treated nuclear extracts (200 ug) of HuH7 cells co-expressing Flag-DDX3 with HA-SHP or HA-HNF4; anti-HA agarose or anti-Flag M2 resin; 20 mM Tris-HCl pH 7.5, 150 mM NaCl, 10% glycerol, 1% Triton X-100, 4 C overnight

Binder	binding [1]	binding (Flag-tagged HNF4)	binding [2]	binding (Flag-tagged SHP)	binding (Flag-tagged DDX3)
B1	binds	–	–	–	–
B2	–	binds	binds	–	–
B3	–	–	binds	binds	binds

Reference: PMC5269733
